Measured values reported in PubChem BioAssay AID2685 (National Center for Advancing Translational Sciences (NCATS), 2010).
Screen size: about 320,000 compounds; about 2,100 (0.66%) were called active. The shares of active, inactive and inconclusive entries below differ from those in the screen. Calls follow the shape of the dose curve; as a rule, active = well fitted inhibition curve with a large enough effect in the signal ratio, with a control signal flat (not every such curve was filed as active); inconclusive = small, poorly fitted or top-dose-only effect, or effect the other way, or a change in a side signal; inactive = flat fitted curve, though single readings scatter; the % refers to the signal ratio. Potencies beside an inconclusive call are fits to weak or partial responses and may not hold up.

Test: qHTS Assay for Lipid Storage Modulators in Drosophila S3 Cells
Conditions: BODIPY lipid droplet fluorescence, 18-24 h, cells fed with added oleic acid; lipid storage change, negative = inhibition: at 46.1 µM (top of the series) unless noted
How it was run: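 Drosophila S3 cells got compounds at several concentrations plus oleic acid (400 uM solution). Laser-scanning cytometry with 488 nm excitation read lipid droplets at 500-530 nm and cells at 575-640 nm. Percent activity was relative to 20 uM Triacsin C.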
% is scaled to controls: 0 for no effect and ±100 for the full control effect; potency is read from the fitted curve at half-maximal effect.

Lipid storage change, negative = inhibition, inconclusive:
CCOC(=O)C1=C(C)N(CCCCCC(=O)O)C(=O)NC1c1ccccc1OC(=O)c1cccs1 (configuration not stated) -24.5%, Cc1ccccc1S(=O)(=O)Cc1ccc(C(=O)NCCCN2CCC(C)CC2)o1 -145%, Cc1cc(C)nc(NNC(=O)NC2CCCCC2)n1 9.14%, CCc1nonc1NC(=O)COc1ccc(Cl)c(C)c1 36.3%, Cc1c(NC(=O)/C=C/c2cn(-c3ccccc3)nc2-c2ccccc2)c(=O)n(-c2ccccc2)n1C 3.49%, COc1ccccc1CNC(=O)C1CCCN(S(=O)(=O)c2c(C)[nH]c(=O)[nH]c2=O)C1 (configuration not stated) 6.31%, COc1cccc2cc(C(=O)N3CCC(C)CC3)c(=O)oc12 71.3% [activator], O=c1sc2ccccc2c(N2CCN(c3ccccc3)CC2)c1[N+](=O)[O-] -26.7%, CC(=O)N1CCN(Cc2nc3cc(NC(=O)Nc4ccccc4)ccc3n2C)CC1 119%, CCCC(NS(=O)(=O)c1ccc(C)cc1)C(=O)O (configuration not stated) -42.4%, COCc1cc(C2C(C(=O)c3ccco3)=C(O)C(=O)N2CCOCCO)ccc1O (configuration not stated) -28.3%, CCn1c(=N)n(CC(=O)OC)c2ccccc21 -21.7%, CCCCOC(=O)n1c(=O)oc2ccc(S(=O)(=O)N3CCCCC3)cc21 -60.9%, Cc1ccc(OCCC(=O)N(CC(=O)Nc2ccccc2C(F)(F)F)Cc2ccco2)cc1 16.2%, Clc1ccc(OCCn2ccnc2)cc1Cl -41.3%, CCOC(=O)c1c(-c2ccc(C)s2)csc1NC(=O)c1ccco1 -0.16%, Cc1ccc(NC(=O)CSc2ncc(S(=O)(=O)c3ccccc3)c(=O)[nH]2)cc1C 27.3%, Cc1cc(C)c(Cn2cnc3ccccc32)c(C)c1 -48.7%, O=C(Nc1ccc(Cl)cn1)C1CCCN1S(=O)(=O)c1ccc(Cl)cc1 (configuration not stated) 31.6%, O=C(COC(=O)C1CCN(C(=O)c2ccc(Cl)cc2)CC1)NC1CCS(=O)(=O)C1 (configuration not stated) 9.1%, CN1CCC(CO)(Cc2ccccc2)CC1 -32.9%, CCOc1cc(S(=O)(=O)NC2CC(C)(C)NC(C)(C)C2)ccc1Cl 7.61%, O=C(c1ccc2ccccc2n1)N(CCO)Cc1ccccc1 0.353%, CCCn1c(N)c(C(=O)CSc2nnc(-c3ccco3)n2Cc2ccccc2)c(=O)[nH]c1=O 3.18%, CC(C)(C)C(=O)NC(=S)N1CCOCC1 5.81%, CCNC(=O)C(=O)Nc1ccc([N+](=O)[O-])cc1 19.3%

Lipid storage change, negative = inhibition, inactive:
CN(C)c1ccc(/C=C/C(=O)c2ccccc2O)cc1, Cc1ccc(N(CC(N)=O)C2SC(=O)NC2=O)cc1 (configuration not stated), N/C(=N\OC(=O)C1CCCCC1)c1cccnc1

Potency, inconclusive:
CC(=O)Nc1cccc(NC(=O)C(=O)NCC(c2ccco2)N2CCc3ccccc32)c1 (configuration not stated) 2.06 µM [activator, full curve], Oc1cccc(/C=N/NC(=S)Nc2cccnc2)c1O 0.58 µM [falling, partial curve], COc1cc(C2C(C#N)=C(N)Oc3cc(C)n(CC4CCCO4)c(=O)c32)cc2c1OCO2 (configuration not stated) 9.2 µM [activator, partial curve, poor fit], CC(C)C[C@@H](CO)N1CCN(Cc2ccccc2)CCC1=O 29.1 µM [activator, single point], COc1cccc(CN(C(=O)Cc2c[nH]c3ccccc23)C(C(=O)NC2CCCCC2)c2ccc(C)o2)c1 (configuration not stated) 18.4 µM [falling, single point], Cc1cc(C)c(NC(=O)Cn2cc3c(n2)CCCC3)c(C)c1 11.6 µM [rising, partial curve, poor fit], COc1cccc(NC(=O)c2ccc(-c3ccc([N+](=O)[O-])cc3)o2)c1 32.6 µM [falling, single point], Cc1cc(C)nc(SCC(=O)n2c3c(c4ccccc42)CCCC3)n1 6.51 µM [activator, single point], COc1ccc(-c2cc(C(=O)NCc3cccnc3)no2)cc1OC 18.4 µM [falling, single point], Cc1ccc([N+](=O)[O-])cc1S(=O)(=O)NCCc1c(C)[nH]c2ccccc12 7.31 µM [activator, partial curve], O=C1[C@H]2[C@@H](c3ccc(F)cc3)N3C(=O)N(c4ccc(Br)cc4)C(=O)[C@@]3(Cc3ccccc3)[C@H]2C(=O)N1C1CCCCC1 23.1 µM [falling, partial curve], Fc1ccccc1-c1csc(-c2cccnc2)n1 29.1 µM [activator, single point], Cc1cnc(C(=O)N2CCCC(C(=O)c3ccc(C(C)(C)C)cc3)C2)cn1 (configuration not stated) 32.6 µM [falling, single point], CN(C)C(=O)c1ccc(NC(=O)CN2CCc3cc4c(cc3C2)OCCCO4)cc1 29.1 µM [activator, partial curve], CSCCC(NC(=O)c1ccccc1Cl)C(=O)Nc1cccc(S(=O)(=O)N2CCCC2)c1 (configuration not stated) 23.1 µM [falling, partial curve, poor fit], Cc1ccc(C(=O)N2CCCCC2)cc1NC1=C(Cl)C(=O)N(Cc2ccccc2)C1=O 29.1 µM [falling, single point], CCC(C)[C@H]1CNCCN1CCCc1cc(OC)c(OC)c(OC)c1 (some centres not stated) 5.17 µM [activator, partial curve], O=C(CSc1nnnn1-c1ccccc1)N1CCc2ccccc21 1.3 µM [activator, partial curve]
